# The campaign covered roughly 300,000 compounds. About 5,400 (1.8%) were called active. Inconclusive results, whose numbers are uncertain, are shown with a selection of clear calls. The call rests on the fitted dose curve; tested in HEK293 cells. A potency beside an inconclusive call is a rough fit, not a confirmed value.
# Assay: qHTS for inhibitors of binding or entry into cells for Marburg Virus
# Conditions: Marburg virus pseudotyped entry inhibition, cell reporter; activity change, negative = inhibition: at 37.8 µM (top of the series) unless noted
# On the % scale 0 is the no-effect control and ±100 the full control effect; potency means the concentration at half of the fitted maximal effect.
SMILES,Potency,"activity change, negative = inhibition"
COc1ccc(N2CCN(C(=O)CSc3ncccc3-c3nc4ccccc4[nH]3)CC2)cc1,inactive,–
Cc1ccc(Cn2c(=N)c(C(=O)NCC3CCCO3)cc3c(=O)n4ccccc4nc32)cc1 (stereo unspecified),"inconclusive: 35.5 µM [inhibitor, partial curve, poor fit]",–
Cc1cccc(N(CC(=O)N2CCN(C)CC2)S(=O)(=O)c2ccccc2)c1,–,inactive: 16.3%
CCc1ccccc1N(C(=O)c1cccs1)C1C=CS(=O)(=O)C1 (stereo unspecified),–,inactive: 16.7%
CN1CCN(C(=O)CN(C2CCCCC2)S(=O)(=O)c2ccc(Br)cc2)CC1,–,inactive: -20.4%
Cc1ccc(Sc2ccncc2S(N)(=O)=O)cc1,"inconclusive: 0.282 µM [activator, full curve, poor fit]",–
Cc1cc(-c2nnc(SCc3cccnc3)o2)no1,–,inactive: 19.2%
CSc1ccccc1C(=O)NCCCn1ccnc1,"inconclusive: 35.5 µM [activator, single point]",–
O=C(NCCCN1CCOCC1)C(=O)NCc1ccccc1Cl,"inconclusive: 10 µM [inhibitor, partial curve, poor fit]",–
CCCCOC(=O)c1ccc(NC(=O)C2CCCO2)cc1 (stereo unspecified),"inconclusive: 35.5 µM [inhibitor, single point]",–
NC(=O)c1ccccc1OCC(=O)NC12CC3CC(CC(C3)C1)C2,"inconclusive: 11.2 µM [activator, single point]",–
CCC(=O)N1CCc2cc(Br)cc(S(=O)(=O)NCCN3CCCC3)c21,"inconclusive: 11.2 µM [inhibitor, single point]",–
CNCCOc1ccccc1-c1ccccc1,–,inactive: -20.9%
Cc1cccc(C(=O)N(CC(=O)Nc2sc(C)c(C)c2C(N)=O)C2CCCC2)c1,"inconclusive: 0.708 µM [inhibitor, full curve, poor fit]",–
Cc1ccc(-c2noc(CNC(=O)c3ccc(C)c(Cl)c3)n2)cc1,"inconclusive: 0.631 µM [inhibitor, full curve, poor fit]",–
Cc1ccc2cccnc2c1N,–,inactive: 2.88%
O=C1OC(Oc2ccc(Br)cc2)(c2ccccc2)c2ccccc21 (stereo unspecified),"inconclusive: 15.8 µM [inhibitor, single point]",–
CCOC(=O)c1cc(NCc2cccs2)ccc1N1CCOCC1,–,inactive: 21.8% [at 46.1 µM]
Cc1nc2ccc(S(=O)(=O)N(C)CC(=O)Nc3ccccc3F)cc2s1,"inconclusive: 6.31 µM [activator, partial curve, poor fit]",–
CCc1ccc(OCC(=O)N(Cc2ccc(C(C)C)cc2)C2CCS(=O)(=O)C2)cc1 (stereo unspecified),"inconclusive: 11.2 µM [inhibitor, partial curve, poor fit]",–
CCCCN(CCCC)/C(N)=N/c1nc(C)cc(C)n1,"inconclusive: 11.2 µM [inhibitor, single point]",–
O=C(NNC(=O)C1CCCCC1)c1ccco1,–,inactive: 6.15% [at 46.1 µM]
Cc1cc(C)n(-c2nnc(NCc3ccc(Cl)cc3)nn2)n1,"inconclusive: 35.5 µM [inhibitor, single point]",–
COc1ccc(NC(=O)c2oc3ccccc3c2NC(=O)c2ccco2)c(OC)c1,–,inactive: -1.19%

SMILES,Potency,"activity change, negative = inhibition"
Cc1ccc(C)c(CS(=O)(=O)c2cn(CC(=O)N3CCCCC3)c3ccccc23)c1,–,inactive: 1.79%
CN(C)c1ccc(/C=C(\C#N)C(=O)OCC(=O)N(C)C2CCS(=O)(=O)C2)cc1 (stereo unspecified),"inconclusive: 0.355 µM [inhibitor, single point]",–
COc1ccc(NC(=O)NC2CCCc3ccccc32)cc1 (stereo unspecified),"inconclusive: 35.5 µM [inhibitor, single point]",–
O=C(CSc1ccc(-c2ccc(F)cc2)nn1)N1CCN(c2ccccc2)CC1,–,inactive: 17.3%
COc1ccc(CNC(=O)CCS(=O)(=O)c2cccc3nonc23)cc1,–,inactive: -17.9%
O=C(c1ccc2ccccc2c1)N1CCN(S(=O)(=O)/C=C/c2ccccc2)CC1,"inconclusive: 5.01 µM [inhibitor, full curve, poor fit]",–
COc1c(Br)cc(Br)cc1/C=N/NC(=O)c1ccncc1,"inconclusive: 6.31 µM [inhibitor, partial curve, poor fit]",–
Cc1nc(Cl)sc1C(=O)Nc1ccccc1,–,inactive: 16.9%
Oc1ccccc1-c1cncn1Cc1ccccc1,–,inactive: 9.88%
Cc1ccc(NCCN(C)C)c2c(=O)c3cc(O)ccc3sc12,"inconclusive: 5.01 µM [inhibitor, full curve, poor fit]",–
O=C(CSc1nnc(-c2ccncc2)n1Cc1ccco1)Nc1ccccc1F,"inconclusive: 1 µM [inhibitor, full curve, poor fit]",–
O=C(c1ccco1)N1CCN(c2ncnc3c2oc2ccccc23)CC1,"inconclusive: 3.16 µM [activator, single point]",–
C[C@H](NC(=O)OC(C)(C)C)c1nnc(SCC(N)=O)o1,"inconclusive: 4.11 µM [activator, partial curve, poor fit]",–
COC(=O)c1sc2ccccc2c1-n1cccc1C(=O)C(=O)Nc1ccc(F)cc1,"inconclusive: 6.31 µM [activator, single point]",–
COc1cccc(-c2cc(C(F)(F)F)n3ncc(C(=O)OC(C)C)c3n2)c1,"inconclusive: 35.5 µM [inhibitor, single point]",–
CCc1cccc(CC)c1NC(=O)CNCc1cccs1,"inconclusive: 1 µM [activator, full curve, poor fit]",–
NC(=O)c1ccc(NC(=O)COC(=O)c2c[nH]c3ccccc23)cc1,"inconclusive: 35.5 µM [activator, single point]",–
Cc1nc2c(C(=O)NCCc3ccccc3Cl)c[nH]n2c(=O)c1Cl,–,inactive: -1.08%
CCc1nnc(NC(=O)c2cccc(NC(=O)C(C)C)c2)s1,–,inactive: 3.07%
CCOC(=O)N/N=C/c1c(C)nn(-c2ccccc2Cl)c1Cl,"inconclusive: 35.5 µM [inhibitor, single point]",–
N#Cc1ccccc1CSc1nnc(-c2ccc(Br)cc2)o1,"inconclusive: 0.891 µM [activator, full curve, poor fit]",–
Cc1ccc2oc(-c3ccc(C)c(NC(=O)/C=C/c4ccco4)c3)nc2c1,"inconclusive: 1.41 µM [activator, partial curve, poor fit]",–
Nc1cc(=O)[nH]c(SCC(=O)Nc2ccc(S(=O)(=O)N3CCOCC3)cc2)n1,"inconclusive: 23.1 µM [activator, single point]",–
Cc1cccc(C(=O)Nc2cccc3c2CCCC3)c1,–,inactive: 3.27%

# Compounds from the list above containing fluorine:
SMILES,Potency,"activity change, negative = inhibition"
Cc1nc2ccc(S(=O)(=O)N(C)CC(=O)Nc3ccccc3F)cc2s1,"inconclusive: 6.31 µM [activator, partial curve, poor fit]",–
O=C(CSc1ccc(-c2ccc(F)cc2)nn1)N1CCN(c2ccccc2)CC1,–,inactive: 17.3%
O=C(CSc1nnc(-c2ccncc2)n1Cc1ccco1)Nc1ccccc1F,"inconclusive: 1 µM [inhibitor, full curve, poor fit]",–
COC(=O)c1sc2ccccc2c1-n1cccc1C(=O)C(=O)Nc1ccc(F)cc1,"inconclusive: 6.31 µM [activator, single point]",–
COc1cccc(-c2cc(C(F)(F)F)n3ncc(C(=O)OC(C)C)c3n2)c1,"inconclusive: 35.5 µM [inhibitor, single point]",–

# Carrying on:

SMILES,Potency,"activity change, negative = inhibition"
COc1cccc(-c2cc(C(=O)NCCCn3ccnc3)no2)c1,"inconclusive: 15.8 µM [activator, single point]",–
CCCc1nc2ccc(NC(=O)c3cccs3)cc2c(=O)n1Cc1ccccc1Cl,"inconclusive: 3.55 µM [inhibitor, partial curve, poor fit]",–
CCN(CC)S(=O)(=O)c1cc(C(=O)Nc2ccc(Cl)cn2)ccc1C,"inconclusive: 35.5 µM [inhibitor, single point]",–
Cn1ccnc1SCC(=O)Nc1cccc(Br)c1,"inconclusive: 1.12 µM [activator, partial curve, poor fit]",–
O=C(COc1ccccc1Cl)NCCNC(=O)c1ccncc1,–,inactive: 2.6% [at 46.1 µM]
FC(F)Sc1nc2ccccc2[nH]1,–,inactive: -0.35% [at 14.2 µM]
Cc1ccc(OCC(=O)N/N=C\c2c(C)[nH]n(-c3ccccc3)c2=O)c([N+](=O)[O-])c1,"inconclusive: 8.91 µM [inhibitor, partial curve, poor fit]",–
Cc1nnc(NC(=O)Cc2cccs2)s1,–,inactive: 7.47%
CCC(C)(C)n1nnnc1C(c1cc2cc(OC)c(OC)cc2[nH]c1=O)N1CCc2ccccc21 (stereo unspecified),"inconclusive: 18.3 µM [inhibitor, single point]",–
COc1ccc(Cc2nnc(NC(=O)C3CCCO3)s2)cc1OC (stereo unspecified),–,inactive: 12.6%
CN(C)S(=O)(=O)c1ccc(NC(=O)COc2cccc3c2OC(C)(C)C3)cc1,–,inactive: -25.4%
CCn1cc(C(=O)NCCN(CC(C)C)CC(C)C)c(=O)c2cc(S(=O)(=O)N3CCOCC3)ccc21,"inconclusive: 25.1 µM [inhibitor, partial curve, poor fit]",–
COc1ccc(CNCCCNCc2ccc(OC)c(OC)c2)cc1OC,"inconclusive: 11.2 µM [inhibitor, partial curve, poor fit]",–
Cc1ccc(-n2nnnc2SCC(=O)Nc2ccccc2N2CCCCC2)cc1C,active: 12.6 µM,–
O=C(N/N=C/c1cccc([N+](=O)[O-])c1)c1ccccc1-n1cccc1,"inconclusive: 12.6 µM [activator, single point]",–
COc1ccc(-n2c(-c3cccc(F)c3)nc3c(cnn3-c3ccc(C)cc3)c2=O)cc1,"inconclusive: 28.2 µM [activator, single point]",–
CCOC(=O)c1cnc2ccc(OC)cc2c1NCc1ccccc1,"inconclusive: 29.1 µM [inhibitor, single point]",–
COc1ccc(NC(=O)COc2ccc(/C=N/NC(=O)c3cccnc3)cc2OC)cc1,"inconclusive: 0.231 µM [inhibitor, partial curve, poor fit]",–
ON=C(CCc1ccccc1)c1ccccc1,–,inactive: -5.06%
CSCCC(NS(=O)(=O)c1ccc(C)cc1)C(=O)Nc1ccc(C)cn1 (stereo unspecified),–,inactive: 20.6%
CCCN(CCC)CCCNC(=O)C1c2cc(OC)c(OC)cc2C(=O)N(C)C1c1cccnc1 (stereo unspecified),"inconclusive: 35.5 µM [activator, single point]",–
Cc1ccc(CNC(=O)C2CN(S(C)(=O)=O)c3cc(Cl)ccc3O2)cc1 (stereo unspecified),"inconclusive: 22.4 µM [inhibitor, single point]",–
Cc1ccc2c(Cl)cc(Cl)c(OCC(=O)NC3CCS(=O)(=O)C3)c2n1 (stereo unspecified),"inconclusive: 2.82 µM [inhibitor, single point]",–
